Laboratory results as given in patent publication US20180258163A1.
These are yes or no findings as the source states them, for the method shown. Some results given as binding are weak or reduced against the parent protein; the word gives no strength. Values belong to the binder of their own block, whether it stands above or below them.

By UniProt entry, the sequences of proteins in these tests, tags left out. Where a name states a change or a piece, a line headed by the entry shows the natural chain unless it says otherwise. Chains listed by the source or under a name are the forms on record and can include a tag or linker.
human IgE (P01854, form named): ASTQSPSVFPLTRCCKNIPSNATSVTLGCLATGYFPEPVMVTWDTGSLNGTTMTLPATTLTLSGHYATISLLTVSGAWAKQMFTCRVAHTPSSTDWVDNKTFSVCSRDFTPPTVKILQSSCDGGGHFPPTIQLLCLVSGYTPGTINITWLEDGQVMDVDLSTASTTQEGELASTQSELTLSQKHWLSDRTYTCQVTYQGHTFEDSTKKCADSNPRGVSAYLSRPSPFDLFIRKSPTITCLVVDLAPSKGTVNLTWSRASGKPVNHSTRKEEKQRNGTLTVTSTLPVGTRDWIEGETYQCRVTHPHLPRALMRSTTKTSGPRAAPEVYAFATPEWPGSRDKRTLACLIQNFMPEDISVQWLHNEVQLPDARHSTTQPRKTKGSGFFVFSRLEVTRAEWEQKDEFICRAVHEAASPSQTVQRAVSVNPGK

Biological target: human IgE (human) (UniProt P01854)
Experiment: SPR

- binding: binds
B1: Ab3 (antibody, human IgG1, kappa, V domains shown)
VH: QSLEESGGDLVKPGASLTLTCTTSVFDLSSYYWICWVRQAPGKGLEWIACVYATSGSTDYATWAKGRLTISKASSTTVTLQMTSLTAADTATYFCARGGIYGGDGFNLWGPGTLVTVSS
VL: AFELTQTPASVEAAVGGTVTINCQASESISNWLAWYQQKPGQPPKLLIYRASTLTSGVPSRFKGSGSGTEFTLTISDLECADAATYYCQSYDPSIIDGFAFGGGTEVVVKR

- binding: binds
B2: Ab2 (antibody, human IgG1, kappa, V domains shown)
VH: QSVEESGGRLVTPGTPLTLTCTVSGFSLSSFNMDWVRQAPGEGLEWIGAVSTGGSAYYAKWAKGRFTISKTSTAVDLKITSPTTEDTATYFCARVDSSGWGYFDLWGQGTLVTVSS
VL: AIEMTQTPFSVSAAVGGTVTINCQASENIYSSLAWYQQKPGQPPKLLIYYASNLASGVSSRFKGSGSGTDFTLTISDLECADAATYYCQSYYFISSTDFNAFGGGTEVVVKR
